# Source: article PMC3832594
# Amino acid sequences for entries named in this document (tags omitted). Residues count along the entry.
# UniProt P97546, residues 29-393: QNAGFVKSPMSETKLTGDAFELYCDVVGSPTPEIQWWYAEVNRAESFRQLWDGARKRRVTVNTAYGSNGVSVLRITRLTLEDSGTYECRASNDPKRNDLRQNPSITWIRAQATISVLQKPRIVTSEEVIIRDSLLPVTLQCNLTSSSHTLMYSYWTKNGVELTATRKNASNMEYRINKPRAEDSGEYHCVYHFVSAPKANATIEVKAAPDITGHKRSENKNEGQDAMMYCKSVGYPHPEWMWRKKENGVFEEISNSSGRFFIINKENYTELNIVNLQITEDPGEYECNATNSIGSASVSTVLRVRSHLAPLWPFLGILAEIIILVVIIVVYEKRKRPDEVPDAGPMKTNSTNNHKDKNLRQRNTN
# Results are given in words; binding and its absence hold for the method and conditions named. In cells and extracts the contact can be indirect. Some entries that bind do so weakly or less than the wild type. Sequences can lack the tags named with a protein.
# Biological target: T1, MCT2 tagged with CFP on the C-terminus (rat) (UniProt Q63344)
# T1 sequence: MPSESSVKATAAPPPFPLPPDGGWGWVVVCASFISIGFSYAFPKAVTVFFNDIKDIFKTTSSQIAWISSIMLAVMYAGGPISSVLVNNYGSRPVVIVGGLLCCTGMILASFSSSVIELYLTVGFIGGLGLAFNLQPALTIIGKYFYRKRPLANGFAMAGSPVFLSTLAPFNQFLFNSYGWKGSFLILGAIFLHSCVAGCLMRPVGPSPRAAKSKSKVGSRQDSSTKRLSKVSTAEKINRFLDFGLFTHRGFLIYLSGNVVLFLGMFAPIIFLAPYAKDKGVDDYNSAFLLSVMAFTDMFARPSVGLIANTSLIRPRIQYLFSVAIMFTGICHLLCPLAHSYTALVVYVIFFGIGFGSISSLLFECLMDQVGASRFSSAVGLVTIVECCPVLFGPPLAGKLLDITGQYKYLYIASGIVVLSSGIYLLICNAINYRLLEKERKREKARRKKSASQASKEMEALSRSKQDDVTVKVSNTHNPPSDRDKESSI
# Assay: FRET or BRET; data not shown; MCT2 tagged with CFP on the C-terminus
substance,measurement,value
np65 C-terminally labelled with YFP (from UniProt P97546-2 29-393),binding,binds
